These results are taken from the supplement of paper PMC12578635.

Some of the results follow. No stated cut-off is given here; in the data, active = 150% or more and inactive = the rest. Many values rest on one well or one pass, so single values are uncertain.

The subject of the test is Staphylococcus aureus JE2-lux inside RAW 264.7 macrophages. Put plainly: intracellular bacterial bioluminescence relative to DMSO vehicle; higher = higher intracellular bacterial metabolic activity. The note with it: 10 µM; treatment time 4 h; gentamicin 50 µg/ml.
In the case of `Cc1ccc(C)c(S(=O)(=O)NCCn2c(C(F)(F)F)nc3cccnc32)c1`, the intracellular bacterial bioluminescence is active: 163%.

As to `CCOc1ccccc1-n1nnc(C(=O)Nc2ccc(C(=O)O)cc2)c1C`, the intracellular bacterial bioluminescence is inactive: 83.4%.

As for `CCOc1ccc2ncc3c(-c4ccccc4)nn(CC(=O)Nc4cccc(F)c4)c3c2c1`, the intracellular bacterial bioluminescence was inactive: 98.3%.

On to `COc1ccc(S(=O)(=O)c2cn(CC(=O)Nc3ccccc3)c3ccc(Cl)cc3c2=O)cc1`, for which the intracellular bacterial bioluminescence was inactive: 93.3%.

For `Cc1cc2c(=O)n(Cc3ccco3)c(SCc3cc(O)[nH]n3)nc2s1`, the intracellular bacterial bioluminescence is inactive: 82.4%.

On to `Cc1ccc(C)c(-c2nn(-c3ccccc3)cc2/C=C(/C#N)c2nc3ccccc3c(=O)[nH]2)c1`, for which the intracellular bacterial bioluminescence is inactive: 102%.

On to `CCOC(=O)C1=C(N)Oc2c(oc(CO)cc2=O)C1c1ccccc1` (configuration not stated), for which the intracellular bacterial bioluminescence was inactive: 123%.

Take `O=C(Nc1ccc(-c2ccc(NC(=O)c3cccs3)cc2)cc1)c1cccs1`: the intracellular bacterial bioluminescence was inactive: 111%.

As for `CCCCOC(=O)Nc1[nH]c(C)c(C(=O)OCC)c1C`, the intracellular bacterial bioluminescence was inactive: 95.4%.

On to `Brc1cccc2sc(N3CCCC3)nc12`, for which the intracellular bacterial bioluminescence was inactive: 101%.

Turning to `CCC(=O)Nc1cccnc1-c1ccc(C(=O)Nc2ccc(OC)c(Cl)c2)cc1`, the intracellular bacterial bioluminescence is inactive: 101%.

On to `CCOC(=O)c1nc(Nc2ccc(C)c(Cl)c2)c2c(C)c(C)n(-c3ccccc3)c2n1`, for which the intracellular bacterial bioluminescence was inactive: 93%.

As for `CCS(=O)(=O)Nc1ccc(-c2nnc(SCC(=O)Nc3cccc(O)c3)o2)cc1`, the intracellular bacterial bioluminescence is inactive: 94.2%.

Consider `Cc1cc2nc(C3CCN(C(=S)Nc4ccc(F)cc4)CC3)[nH]c2cc1C`, for which the intracellular bacterial bioluminescence is inactive: 76.9%.

For the molecule `O=C(CSc1cnc2ccccc2n1)NCc1ccc2c(c1)OCO2`, the intracellular bacterial bioluminescence was inactive: 102%.

On to `Cn1c(=O)n(CC(=O)N2CCCC2)c(=O)c2cc(S(=O)(=O)Nc3cccc4c3CCCC4)ccc21`, for which the intracellular bacterial bioluminescence was inactive: 68.2%.

Consider `O=C1CCc2cc(S(=O)(=O)NC3CCN(Cc4ccccc4)C3)ccc2N1` (configuration not stated), for which the intracellular bacterial bioluminescence was inactive: 106%.

On to `O=C(Nc1c(C(=O)Nc2ccc3c(c2)OCCO3)oc2ccccc12)c1ccccc1C(F)(F)F`, for which the intracellular bacterial bioluminescence was inactive: 50%.

For the molecule `Cc1cc2ccccc2n2c(=O)n(CCNC(=O)c3[nH]ncc3Br)nc12`, the intracellular bacterial bioluminescence is inactive: 81.9%.

For the molecule `NC(=O)c1cc2ccccc2o/c1=N\NC(=O)c1ccncc1`, the intracellular bacterial bioluminescence is inactive: 105%.

For the molecule `CC(C)c1ccc(NC(=O)CCn2c(=O)oc3ccccc32)cc1`, the intracellular bacterial bioluminescence was inactive: 38.1%.

Regarding `COc1ccc(N(CC(=O)NCCc2ccccc2)C(=O)c2csnn2)cc1`, the intracellular bacterial bioluminescence was inactive: 106%.

`CCC1CCCCN1C(=O)Cn1nc(-c2cc(C)oc2C)cc(N)c1=O` (configuration not stated): the intracellular bacterial bioluminescence was inactive: 74.8%.

Regarding `COc1ccc(C(=O)Oc2coc(CSc3nc(C)cs3)cc2=O)cc1OC`, the intracellular bacterial bioluminescence is inactive: 85.1%.

On to `COc1cc2cc(C#N)c(SCC(=O)c3ccc(F)cc3)nc2cc1OC`, for which the intracellular bacterial bioluminescence was inactive: 123%.

In the case of `CCc1nnsc1C(=O)Nc1c(C(=O)Nc2cccc(Cl)c2)oc2ccccc12`, the intracellular bacterial bioluminescence is inactive: 113%.

With `O=C(CSc1nnc2n(Cc3ccccc3)c3ccccc3n12)N1CCc2ccccc21`, the intracellular bacterial bioluminescence is inactive: 10.4%.

For `Cc1ccc(NC(=O)c2ccc3nnc(SCC(=O)NCc4ccc(Cl)cc4)n3c2)cc1`, the intracellular bacterial bioluminescence is inactive: 70.3%.

Turning to `COc1ccc(NC(=O)CSc2nnc3ccc(S(=O)(=O)c4ccccc4)nn23)cc1`, the intracellular bacterial bioluminescence was inactive: 54.3%.

On to `C=CCOc1ccccc1NC(=O)c1ccc2c(c1)nnn2C1CCCCC1`, for which the intracellular bacterial bioluminescence is inactive: 96.2%.

Take `Cc1ccc2nc(SCC(=O)NCc3ccccc3)nc(=O)n2c1`: the intracellular bacterial bioluminescence is inactive: 96.4%.

On to `NC(=O)CSc1nc2ccc(N3CCOCC3)cc2c(=O)n1CCc1ccccc1`, for which the intracellular bacterial bioluminescence is inactive: 80.2%.

Consider `CCN(CC)c1ncc(C(=O)Nc2ccc(OC)cc2OC)c2ccccc12`, for which the intracellular bacterial bioluminescence is inactive: 93.8%.

Turning to `Cn1cnc(S(=O)(=O)NCc2nnc(C(=O)Nc3ccc(F)cc3F)s2)c1`, the intracellular bacterial bioluminescence is inactive: 101%.

Take `COc1ccc(-n2c(-c3ccccc3)cn3c4c(=O)[nH]c(=O)n(C)c4nc23)cc1Cl`: the intracellular bacterial bioluminescence is inactive: 111%.

For `O=C(CSc1nc(=O)n2ccccc2n1)Nc1cccc(Cl)c1`, the intracellular bacterial bioluminescence was inactive: 19.2%.

Take `Cc1cc(C)c2s/c(=N\C(=O)CN3C(=O)c4ccccc4C3=O)n(C)c2c1`: the intracellular bacterial bioluminescence was inactive: 86.6%.

As to `CCOC(=O)Cn1c(Cl)c(/C=N/NC(=O)c2ccc3ccccc3n2)sc1=O`, the intracellular bacterial bioluminescence is inactive: 104%.

For `COc1ccc(S(=O)(=O)Nc2cccc(C(=O)Nc3nc4cc5c(cc4s3)OCO5)c2)cc1`, the intracellular bacterial bioluminescence is inactive: 65%.

Regarding `CCOC(=O)c1nc(Cl)c2c(C)c(C)n(-c3cccc(Cl)c3)c2n1`, the intracellular bacterial bioluminescence was inactive: 88.3%.

Take `Cn1c(=O)[nH]c(=O)c2c1nc1n2CC(COc2ccc3ccccc3c2)O1` (configuration not stated): the intracellular bacterial bioluminescence was inactive: 82.1%.

For the molecule `Cc1nc(SCC(=O)Nc2sc3c(c2C#N)CCCC3)c2c3c(sc2n1)CCC3`, the intracellular bacterial bioluminescence is inactive: 108%.

Take `CCSc1cccc(C(=O)Nc2sc3c(c2C#N)CCN(C(C)=O)C3)c1`: the intracellular bacterial bioluminescence is inactive: 74.7%.

As to `O=C(CCc1ccccc1)NCCn1nc(-c2cccs2)oc1=O`, the intracellular bacterial bioluminescence is inactive: 96.9%.

Consider `O=C(COc1ncnc2ccccc12)Nc1c[nH]c2ccccc12`, for which the intracellular bacterial bioluminescence was inactive: 14.2%.

Consider `Cc1ccc2nc(NC(=O)CSc3nnc4[nH]c(=O)c(C)c(C)n34)sc2c1`, for which the intracellular bacterial bioluminescence is inactive: 107%.

On to `CCOc1ccc(C(=O)NCCSc2ncc(-c3ccccc3)[nH]2)cc1`, for which the intracellular bacterial bioluminescence is inactive: 109%.

Turning to `COc1cccc(C(=O)Nc2c3c(nn2-c2ccccc2C)CS(=O)C3)c1` (configuration not stated), the intracellular bacterial bioluminescence was inactive: 75.4%.

As to `CCOc1ccccc1/C=C1\Oc2c(ccc(O)c2CN(CC)CC)C1=O`, the intracellular bacterial bioluminescence was inactive: 91%.

For the molecule `CC(Nc1nc2c(S(=O)(=O)c3ccc(Cl)cc3)nnn2c2ccccc12)c1ccccc1` (configuration not stated), the intracellular bacterial bioluminescence is inactive: 120%.

Regarding `Cc1cc(Nc2ccc3c(c2)OCO3)n2c(n1)nc1ccccc12`, the intracellular bacterial bioluminescence is inactive: 129%.

On to `COc1ccc(S(=O)(=O)Nc2cccc(-c3nc4cccnc4s3)c2)cc1F`, for which the intracellular bacterial bioluminescence is inactive: 93.3%.

Regarding `CN1CCN(C(CNC(=O)c2ccc(Cl)cc2)c2ccc3c(c2)OCO3)CC1` (configuration not stated), the intracellular bacterial bioluminescence is inactive: 108%.

Consider `CC(C)NC(=O)C1CCN(C(=O)c2cc(-c3ccccn3)[nH]n2)CC1`, for which the intracellular bacterial bioluminescence was inactive: 93.5%.

For the molecule `O=c1oc2ccccc2cc1-c1csc(Nc2nc3cc4c(cc3s2)OCO4)n1`, the intracellular bacterial bioluminescence was inactive: 101%.

In the case of `O=C(CSc1nnc(NC(=O)C2CCCCC2)s1)Nc1nccs1`, the intracellular bacterial bioluminescence is inactive: 95.5%.

On to `CC(=O)C1C(c2cccc(C)c2)NC(=O)NC1(O)C(F)(F)F` (configuration not stated), for which the intracellular bacterial bioluminescence was inactive: 87.2%.
